Four molecules from US20260028418A1 (GC CELL, published 2026) can be followed below.

These are yes or no findings as the source states them, for the method shown. Some results given as binding are weak or reduced against the parent protein; the word gives no strength.

In assay [1] the target is HER2-ECD DIV Fc (human) (UniProt P04626). The experiment in a line: ELISA on plate-coated HER2 domain-Fc fusion (1 µg/mL), anti-human IgG-HRP, Abs 450 nm; antibody concentration not given. (In an ELISA, binding on a coated surface is turned into a signal by an enzyme label.)
Assay [2] shares this target. Nature of the assay: ELISA on immobilized HER2-ECD domain Fc fusion proteins.
Assay [3] concerns the target T1, HER2-ECD DI Fc (human, UniProt P04626 23-217, limits assumed).
T1 construct: domain: domain 1; also called domain 1 of the extracellular domains of the HER2 protein; not shown: Hinge and Fc region (CH2-CH3) of human IgG1, at the C-terminus
The experiment in a line: ELISA on plate-coated HER2 domain-Fc fusion (1 µg/mL), anti-human IgG-HRP, Abs 450 nm; antibody concentration not given. As to the method: The HER2-ECD DI Fc, HER2-ECD DII Fc, HER2-ECD DIII Fc, HER2-ECD DIV Fc and HER2-ECD Fc fusion proteins were immobilized at 4° C. overnight onto a Costar 96-well plate (Corning, Cat. No. 3590) at a concentration of 1 μg/mL […]. The resultant was washed 3 times with TBS-T (0.05% Triton X-100) and then blocked at room temperature for 1 hour with 100 μL of TBS-T/BSA (5% BSA). After washing the blocked plate 3 times and adding the anti-HER2 antibody, the antibody was allowed to bind at room temperature for 1 hour. After washing 3 times and then adding anti-human IgG-HRP diluted to 1:3,000 in TBS-T/BSA, as a secondary antibody, the antibody was allowed to bind at room temperature for 1 hour. After washing the resultant 3 times and adding TMB (SurModics, Cat. No. TMBC-1000-01), the mixture was allowed to develop color at room temperature for 5 minutes. Then, the color development was stopped by adding 1 N sulfuric acid (DukSan, Cat. No. 254). Absorbance was measured at 450 nm using Victor X3 (PerkinElmer, Cat. No. 2030-0030).

The target of assay [4] is T1, HER2-ECD DI Fc. Nature of the assay: ELISA on immobilized HER2-ECD domain Fc fusion proteins.

B1: 1G3 (antibody, V domains shown)
VH: EVQLQQSGAELVKPGASVKLSCTASDFNIVDTYMHWVKQRPEQGLEWIGRIDPANGYTRYDPNFQGKATITADTSSNTAYLQLSSLTSEDTAVYYCARYYYGFYAMDYWGQGTTVTVSS
VL: DIVMTQSHKFMSTSVGDRVSITCKASQDVSTAVAWYQQKPGQSPKLLIYSASYRYTGVPDRFTGSGSGTDFTFTISSVQAEDLAVYYCQQHYSTPPTFGGGTKLELK
For the molecule B1, the binding result in assay [1] and in assay [2] was “binds” throughout.

B2: hz39D2 (antibody, V domains shown)
VH: QVQLVQSGSELKKPGASVKVSCKASGYTFTNYGVNWVRQAPGQGLEWMGWINTHTGEPTYAEEFKGRFVFSLDTSVSTAYLQISSLKAEDTAVYYCARDDYYVRVDYWGQGTTVTVSS
VL: DIQMTQSPSSLSASVGDRVTITCKASQDINSYLSWFQQKPGKAPKTLIYRANRLVDGVPSRFSGSGSGQDYTLTISSLQPEDFATYYCLQYDEFPWTFGQGTKVEIK
notes: Humanized antibody, captured as IgG by anti-human IgG in SPR; also called humanized 39D2 antibody
Take B2: the binding result in assay [3] and in assay [4] was “binds” throughout.

B3: hz2G10 (antibody, V domains shown)
VH: EVQLVESGGGLVQPGGSLRLSCAASGFTFSDYYMYWVRQAPGKGLEWVAYINSGGGSTYYPDTVKGRFTISRDNAKNSLYLQMNSLRAEDTAVYYCAREALYDYDYAMDYWGQGTTVTVSS
VL: DIVMTQSPLSLSVTPGQPASISCKSSQSLLYSNGKTYLNWLLQKPGQSPQRLIYLVSKLDSGVPDRFSGSGSGTDFTLKISRVEAEDVGVYYCVQGTHFPLTFGGGTKVEIK
notes: Humanized antibody, detected with anti-human IgG-HRP; Only the variable domains are tied to the name; also called humanized 2G10 antibody
For the molecule B3, the binding entry in assay [3] and in assay [4] was “binds” throughout.

B4: hz8G11 (antibody, V domains shown)
VH: QVQLVQSGQEVKKPGASVKVSCKASGYSFTGYYMHWVRQAPGQGLEWIGHINPNNGGTSYNQKFKGRTTLTVDKSISTAYMELSRLRSDDTAVYYCAREEAFAYWGQGTLVTVSS
VL: DIQMTQSPSSLSASVGDRVTISCRASQDISNYLNWYQQKPGKAPKLLIYYTSRLHSGVPSRFSGSGSGTDFSLTISSLQPEDIATYYCQQGITPPWTFGGGTKVEIK
notes: Humanized antibody, detected with anti-human IgG-HRP; also called humanized 8G11 antibody
On to B4, for which the binding entry in assay [1] and in assay [2] was “binds” throughout.
